# From article PMC12040169 (PLOS Biology, 2025)
# This is one part of the list.
# Test system: T1, CTL2-GFP (C. trachomatis L2/434/Bu, GFP-expressing)
# T1 construct: L2/434/Bu, GFP-expressing
# Set-up: species or system HeLa; Intracellular C. trachomatis growth in HeLa cells, bulk GFP fluorescence relative to DMSO
# Details: bulk GFP, single well; 28.5 h, 10 µM; inhibitor
row,SMILES,% of control remaining
1,CS(=O)(=O)N(CC(=O)Nc1ccccc1F)c1ccc(I)cc1 [CBK265265],115.54%
2,Nc1ccn([C@H]2C[C@@H](O)[C@@H](CO)O2)c(=S)n1 [CBK201187],189.137%
3,CC(Oc1ccc(F)cc1)C(=O)Nc1ccc(S(N)(=O)=O)cc1 (centres unmarked) [CBK265506],137.815%
4,O=C(CN1C(=O)c2ccc([N+](=O)[O-])cc2C1=O)Nc1cc(Cl)ccc1C(=O)O [CBK263472],108.181%
5,COCC(=O)N1CCc2sccc2C1c1ccc(NCc2cccc(OC)c2)cc1 (centres unmarked) [CBK286454],119.732%
6,COc1ccc(S(=O)(=O)N2CCN(C(=O)c3cc(-c4ccncc4)nc4c(C)c(Cl)ccc34)CC2)cc1 [CBK267739],135.247%
7,COCCNS(=O)(=O)c1cccc2c1CN(C(=O)CC1CCCC1)CC2 [CBK306982],157.774%
8,CNC(=O)c1ccc(-c2cc(OC)c(OC)c(OC)c2)nc1NCCOC [CBK105997],159.679%
9,O=[N+]([O-])c1ccc(CN2C[C@H](O)C[C@H]2c2nc(-c3ccccc3)no2)cc1 [CBK288833],117.583%
10,Cc1ccn2c(NS(=O)(=O)c3ccc(CCC(=O)O)cc3)c(-c3cccs3)nc2c1 [CBK297480],97.1711%
11,COc1ccc(-c2cc(Nc3ccc(N(C)C)cc3)ncn2)cc1OC [CBK036969],104.822%
12,Cc1cc(C)nc(NC2=NC(=O)CC(C(=O)O)N2c2ccc(Cl)cc2Cl)n1 (centres unmarked) [CBK286968],141.503%
13,O=C(Cc1ccsc1)N1C[C@@H]2CCCCN(CC3CC3)[C@@H]2C1 [CBK285507],106.327%
14,NC1CCC(Nc2cncc(-c3ccc(F)c(Cl)c3)n2)CC1 (centres unmarked) [CBK037893],79.7322%
15,COc1cc(CN2CCCCC2CO)c([N+](=O)[O-])cc1OC (centres unmarked) [CBK261730],118.661%
16,COc1ccc(CCN(CCc2ccccc2)CC(O)COc2cccc3c2CCCC3)cc1 (centres unmarked) [CBK024506T],49.0199%
17,COc1ccccc1NC(=O)c1sc2ncn(CC(=O)NC3CCCCC3)c(=O)c2c1C [CBK265788],144.352%
18,CC(=O)Nc1ccc(Nc2cc(-c3ccc(CC(C)C)cc3)ncn2)cc1 [CBK090723],151.739%
19,Cc1cc(F)c(S(N)(=O)=O)cc1NC(=O)c1ccc(CN2CCOCC2)o1 [CBK059376C],128.398%
20,CC(C)Cn1cncc1CNC(=O)Nc1ccc2c(cnn2C)c1 [CBK307405],114.685%
21,Clc1ccccc1-c1nccnc1NCc1cccs1 [CBK037362],185.873%
22,Cc1nc(CCC(=O)N2Cc3cnn(Cc4ccc(F)cc4)c3C2)n[nH]1 [CBK306993],96.3452%
23,Cc1cc(Cl)cc(Cl)c1S(=O)(=O)Nc1nc2c(s1)C(=O)CC(C)(C)C2 [CBK200034],105.081%
24,COC(=O)c1cc(C#N)c(=O)n(CC(O)COc2ccccc2)c1 (centres unmarked) [CBK304991],108.654%
25,COc1ccc(CNC(=O)CSc2cnn[nH]2)cc1 [CBK269881],122.462%

# By substructure, the entries above with four or more nitrogen atoms (ten)
row,SMILES,% of control remaining
6,COc1ccc(S(=O)(=O)N2CCN(C(=O)c3cc(-c4ccncc4)nc4c(C)c(Cl)ccc34)CC2)cc1 [CBK267739],135.247%
9,O=[N+]([O-])c1ccc(CN2C[C@H](O)C[C@H]2c2nc(-c3ccccc3)no2)cc1 [CBK288833],117.583%
11,COc1ccc(-c2cc(Nc3ccc(N(C)C)cc3)ncn2)cc1OC [CBK036969],104.822%
12,Cc1cc(C)nc(NC2=NC(=O)CC(C(=O)O)N2c2ccc(Cl)cc2Cl)n1 (centres unmarked) [CBK286968],141.503%
14,NC1CCC(Nc2cncc(-c3ccc(F)c(Cl)c3)n2)CC1 (centres unmarked) [CBK037893],79.7322%
17,COc1ccccc1NC(=O)c1sc2ncn(CC(=O)NC3CCCCC3)c(=O)c2c1C [CBK265788],144.352%
18,CC(=O)Nc1ccc(Nc2cc(-c3ccc(CC(C)C)cc3)ncn2)cc1 [CBK090723],151.739%
20,CC(C)Cn1cncc1CNC(=O)Nc1ccc2c(cnn2C)c1 [CBK307405],114.685%
22,Cc1nc(CCC(=O)N2Cc3cnn(Cc4ccc(F)cc4)c3C2)n[nH]1 [CBK306993],96.3452%
25,COc1ccc(CNC(=O)CSc2cnn[nH]2)cc1 [CBK269881],122.462%

# The results go on:

row,SMILES,% of control remaining
1,O=C(NCCn1nc(-c2cccs2)ccc1=O)c1ccco1 [CBK283838],102.457%
2,CN(Cc1ccc2c(c1)OCCO2)C(=O)CSc1n[nH]c(=O)n1Cc1ccccc1 [CBK297876],133.753%
3,COc1ccc(Nc2ccc(-c3ccsc3)cn2)c(C)c1 [CBK036855],84.4393%
4,CC1SC2(C(=O)Nc3ccccc32)N(c2ccc(F)cc2)C1=O (centres unmarked) [CBK093463],119.694%
5,COc1cccc(C2(C(=O)N3CCc4nc[nH]c(=O)c4C3)CC2)c1 [CBK304488],154.085%
6,O=C(c1cscn1)N1CCCc2ccccc21 [CBK200348],96.3789%
7,O=C(Nc1ccc(-c2nnc(-c3ccco3)o2)cc1)C(c1ccccc1)c1ccccc1 [CBK263452],100%
8,O=C1CCC(=O)N1CCOc1nccnc1N1CCN(Cc2ccc([N+](=O)[O-])cc2)CC1 [CBK084294],119.987%
9,COc1ccc(-c2cn(-c3cccc(NC(C)=O)c3)nn2)cc1 [CBK113008],176.987%
10,Cc1nc2c(c(=O)[nH]1)CCN(Cc1cc(C)n(C3CC3)c1C)C2 [CBK282338],110.856%
11,Nc1nc2n(c1C(=O)c1ccc(Cl)cc1)CCC2 [CBK288194],152.137%
12,Cn1ncc2c1CCCN(C(=O)c1ccccc1C(F)(F)F)C2 [CBK282251],142.444%
13,FC(F)(F)c1ccc(Oc2ccc(-c3noc(-c4cccnc4)n3)cc2)nc1 [CBK270166],119.841%
14,COc1cc(/C=C2/NC(=O)N(c3ccccc3)C2=O)ccc1OCc1ccc(C(=O)O)cc1 [CBK265139],100%
15,COc1ccc(C(NC(=O)C2CCN(C(=O)Oc3ccccc3)CC2)c2ccccc2C)cn1 (centres unmarked) [CBK059715],123.613%
16,O=C(CN1CCCCC1)NCCNc1ccc([N+](=O)[O-])cc1Cl [CBK264922],100%
17,COc1ccc(CC(=O)N2CCCC(c3cccc(Cc4cccc(C)c4)n3)C2)cc1 (centres unmarked) [CBK286498],81.6989%
18,Cc1ccc(OCC(=O)Nc2cccnc2)c(-n2nc3ccccc3n2)c1 [CBK270281],159.711%
19,O=S(=O)(Nc1nccs1)c1ccc(Nc2ncnc3ccccc23)cc1 [CBK269487C],15.6204%
20,Cc1ccc(Cl)cc1N1CCN(S(=O)(=O)N(C)C)CC1 [CBK270284],142.951%
21,Cc1ccc(S(=O)(=O)NCCC(=O)NO)cc1 [CBK023472],92.1444%
22,O=C(Cn1c2ccccc2c2ccccc21)Sc1nc2ccccc2[nH]1 [CBK263788],100%
23,COc1ccc(C(C)NC(=O)CCn2ccc3ccncc32)cc1 (centres unmarked) [CBK284798],139.638%
24,CN1CCN(c2nccnc2-c2ccco2)CC1 [CBK038050],157.656%
25,NC(=O)COc1ccc(/C=C/c2cc(C(F)(F)F)[nH]c(=O)n2)cc1 [CBK269475],146.026%

# A run of entries from the list above:
row,SMILES,% of control remaining
5,COc1cccc(C2(C(=O)N3CCc4nc[nH]c(=O)c4C3)CC2)c1 [CBK304488],154.085%
6,O=C(c1cscn1)N1CCCc2ccccc21 [CBK200348],96.3789%
